Measured values from patent US11491109B2, “Pharmaceutical compositions for basic or neutral, low molecular weight compounds” (Hoffmann-La Roche Inc., priority 2017, dated 2022).
≈ marks a conversion by molar mass, not a printed value.

Key:
physchem = details: water, thermodynamic from solid
[1] = Protocol: Polymer solutions were prepared by dissolving EPO (0.1%, 0.5%, 1%, 2%, 3%, 4%, 5% (w/w)) in deionized water and adjusting all solutions to pH 6.0 by hydrochloric acid and sodium hydroxide at 25° C. Solutions were checked carefully for absence of particles.
(§1) Solubility of compounds in EPO-solutions was determined by using a 96-well assay that was introduced to measure equilibrium solubility in parallel to a solid state analysis of the residual solid (SORESOS)^21 as described before.^22 In brief, APIs were dispensed using the powder-picking-method^23 in a 96-well flat bottom plate (Corning Inc., Durham, USA). Mixtures were agitated by head-over-head rotation for 48 h at room temperature after addition of stir bars and polymer solutions (150 μl). […] Samples were analyzed directly in the 96-well filter plate with an exposure time of 5 min per well.
as §1, with “USA).” for “USA). Mixtures were agitated by head-over-head rotation for 48 h at room temperature after addition of stir bars and polymer solutions (150 μl).”

COC(=O)C1=C(C)NC(C)=C(C(=O)OC)C1c1ccccc1[N+](=O)[O-] [NFP, nifedipine]
solubility (physchem): 18 µg/mL (≈ 52 µM) | course of solubility with polymer concentration [1]: increase of solubility with polymer concentration up to 5% EPO
